From paper PMC9499467, “Phenanthroindolizidine Alkaloids Isolated from Tylophora ovata as Potent Inhibitors of Inflammation, Spheroid Growth, and Invasion of Triple-Negative Breast Cancer” (International Journal of Molecular Sciences, 2022) come the findings set out here.

Data set [1] has as its system MDA-MB-231. Briefly: 2D cell viability (PrestoBlue resazurin) in MDA-MB-231. The data set is classed as cell-based, human. The following applies: viability IC50 24 h vs NFκB IC50 24 h. The procedure:
Cell viability was determined based on resazurin-reduction in viable cells according to the PrestoBlue^TM Assay. On day 1, MDA-MB-231 (1.5 × 10^4 cells per well or 7.5 × 10^3 cells per well) were seeded into black 96 well plates (Greiner; #655090) in a total volume of 100 µL. On day 2, the compounds or DMSO (Roth; #A994.1) alone at maximal 0.1% were applied (final concentrations after serial dilution shown in Table 3). An amount of 20 µM staurosporine (Sigma-Aldrich; #S5921) served as a positive control. On day 3, the PrestoBlue^TM reagent (Invitrogen^TM, Darmstadt, Germany; #A13262) was applied according to the manufacturer`s instructions. Finally, cell viability-dependent fluorescence was recorded in relative fluorescence units (RFU) with excitation/emission (Exλ/Emλ) at 535/590 nm or 560/590 nm, using the microplate reader Spark® (Tecan).
A general note: Resazurin is reduced to fluorescent resorufin, in cell work by metabolically active cells.

Data set [2] deals with NFκB. Briefly: NFκB inhibition assay (2 h), NFκB-dependent nanoluc luciferase reporter. The class given is cell-based, human. Conditions: vs compound (1). The procedure:
Experiments were performed according to the published protocol. On day 1, 4 × 10^4 NFκB-MDA-MB-231-nanoluc cells were seeded into white 96 well plates (Greiner; #655098). On day 2, the medium was replaced with starvation medium and the cells were pre-incubated for 20 min with either 100 µL of DMSO (Roth; #A994.1) alone at a concentration of maximal 0.1% or with the final concentration of the diluted compounds (Table 3). To activate NFκB signaling, cells were stimulated with 1 µg/mL LPS (Sigma-Aldrich; #L2630) beforehand. NFκB-dependent luciferase activity was measured according to the manufacturer`s protocol for the Nano-Glo Luciferase Assay System (Promega, Mannheim, Germany; #N1110). NFκB-dependent luminescence was determined as relative light units (RLU) using the microplate reader Spark® (Tecan, Männedorf, Switzerland).
A general note: A reporter such as luciferase makes a cellular process visible.

For data set [3], the system named is 3D co-culture spheroids of MDA-MB-231 and primary murine CAFs. Briefly: 3D cell viability (ATP content) in TNBC co-culture spheroids. The class given is cell-based, human MDA-MB-231. Conditions: 3D vs 2D. The protocol:
On day 1, 3000 cells were seeded into a low-attachment 96 well plate (Greiner; #650970). […] Cell viability was determined based on the ATP content in viable cells according to the manufacturer`s instructions (Promega #G9682). Co-culture spheroids were generated for 72 h before they were grown for another 72 h with or without exposure to the compounds. […] Cell viability-dependent luminescence was determined as relative light units (RLU) using the microplate reader Spark® (Tecan).

Data set [4] has as its system NFκB. Briefly: NFκB inhibition assay (24 h), NFκB-dependent firefly luciferase reporter. The data set is classed as cell-based, human. The following applies: 24 h vs 2 h. The protocol: On day 1, 3 × 10^4 NFκB MDA-MB-231-firefly cells were seeded into white 96 well plates (Greiner; #655098). On day 2, the medium was replaced with starvation medium and the cells were pre-incubated for 20 min with either 100 µL of DMSO (Roth; #A994.1) alone at maximal 0.1%, or with the final concentration of the diluted compounds (Table 3). To activate NFκB signaling, cells were stimulated with 20 ng/mL TNFα (Peprotech, Hamburg, Germany; #300-01A). Cell lysis was performed in 20 µL 1× cell lysis buffer according to the manufacturer’s instruction for the Luciferase Assay System (Promega #E1500). NFκB-dependent luminescence was determined as relative light units (RLU) using the microplate reader Spark® (Tecan).

Turning to `COc1ccc2c3c(c4cc(OC)c(O)cc4c2c1)CN1CCC[C@H]1[C@H]3O` [Compound (2), tylophorinidine], the “fold higher concentration for reduction of cell viability compared to NFκB blockade after 24 h” value (shortened to “fold higher concentration for reduction”) in data set [1] was determined as 2 fold. Besides, the “factor of decreased NFκB blockade within 2 h compared to compound (1)” value in data set [2] amounted to 12. For the same compound, the “fold higher IC50 in 3D co-culture model compared to 2D” value (shortened to “fold higher IC50”) in data set [3] is “at least 4 fold”. In data set [4], the “fold decrease of NFκB IC50 at 24 h versus 2 h” value (from here on “fold decrease of NFκB IC50”) was found to be 5.5 fold.

In the case of `COc1ccc2c3c(c4cc(OC)c(OC)cc4c2c1)CN1CCCC1C3O` (stereo not shown) [Compound (1), O-methyltylophorinidine], the “fold higher concentration for reduction” value in data set [1] is “about 4 fold”. The “fold decrease of NFκB IC50” value in data set [4] stood at 5 fold.

As for `COc1cc2c3c(c4ccc(O)cc4c2cc1OC)[C@H](O)[C@@H]1CCCN1C3` [Compound (3), tylophoridicine E], the “factor of decreased NFκB blockade within 2 h compared to compound (1)” value in data set [2] came to 17. In addition, in data set [3], the “fold higher IC50” value was “at least 4 fold”. Besides, in data set [4], the “fold decrease of NFκB IC50” value was 2.5 fold.

Consider `COc1ccc2c3c(c4cc(OC)c(OC)cc4c2c1)CN1CCC[C@H]1C3` [Compound (4), 2-demethoxytylophorine], for which the “fold higher concentration for reduction” value in data set [1] is given as “about 4 fold”. Besides, the “factor of decreased NFκB blockade within 2 h compared to compound (1)” value in data set [2] was 5. Further, the “fold higher IC50” value in data set [3] is “at least 4 fold”. Moreover, in data set [4], the “fold decrease of NFκB IC50” value amounted to 3 fold.
